# Laboratory results taken from the supplement of paper PMC12067093, “Discovery and optimisation of a covalent ligand for TRIM25 and its application to targeted protein ubiquitination” (Chemical Science, 2025).
# Chains of the proteins cited; added tags and fusions are not shown. Lines headed by an entry give the natural chain unless they say otherwise; changes in a name come on top.
# UniProt P11387: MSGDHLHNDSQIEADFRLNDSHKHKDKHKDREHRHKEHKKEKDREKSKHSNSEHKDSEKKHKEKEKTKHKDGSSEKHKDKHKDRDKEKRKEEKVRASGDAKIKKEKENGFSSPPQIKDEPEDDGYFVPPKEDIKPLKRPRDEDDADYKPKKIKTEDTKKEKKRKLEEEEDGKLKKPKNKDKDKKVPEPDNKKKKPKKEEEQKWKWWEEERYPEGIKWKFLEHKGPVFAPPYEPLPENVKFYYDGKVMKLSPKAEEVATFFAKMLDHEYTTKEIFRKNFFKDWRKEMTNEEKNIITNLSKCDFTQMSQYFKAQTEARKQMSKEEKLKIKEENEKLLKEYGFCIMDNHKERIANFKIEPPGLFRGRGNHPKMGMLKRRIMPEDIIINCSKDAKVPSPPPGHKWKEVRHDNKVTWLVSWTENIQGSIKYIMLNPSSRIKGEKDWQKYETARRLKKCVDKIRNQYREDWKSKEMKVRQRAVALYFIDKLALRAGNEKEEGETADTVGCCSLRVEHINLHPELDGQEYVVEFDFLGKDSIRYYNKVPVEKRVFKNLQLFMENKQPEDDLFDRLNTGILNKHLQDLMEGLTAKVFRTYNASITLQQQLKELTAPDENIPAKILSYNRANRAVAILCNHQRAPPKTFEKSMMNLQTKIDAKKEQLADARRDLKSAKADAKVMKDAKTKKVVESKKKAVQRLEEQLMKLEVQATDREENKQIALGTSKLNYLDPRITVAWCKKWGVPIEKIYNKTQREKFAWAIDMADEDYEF
# UniProt Q02880: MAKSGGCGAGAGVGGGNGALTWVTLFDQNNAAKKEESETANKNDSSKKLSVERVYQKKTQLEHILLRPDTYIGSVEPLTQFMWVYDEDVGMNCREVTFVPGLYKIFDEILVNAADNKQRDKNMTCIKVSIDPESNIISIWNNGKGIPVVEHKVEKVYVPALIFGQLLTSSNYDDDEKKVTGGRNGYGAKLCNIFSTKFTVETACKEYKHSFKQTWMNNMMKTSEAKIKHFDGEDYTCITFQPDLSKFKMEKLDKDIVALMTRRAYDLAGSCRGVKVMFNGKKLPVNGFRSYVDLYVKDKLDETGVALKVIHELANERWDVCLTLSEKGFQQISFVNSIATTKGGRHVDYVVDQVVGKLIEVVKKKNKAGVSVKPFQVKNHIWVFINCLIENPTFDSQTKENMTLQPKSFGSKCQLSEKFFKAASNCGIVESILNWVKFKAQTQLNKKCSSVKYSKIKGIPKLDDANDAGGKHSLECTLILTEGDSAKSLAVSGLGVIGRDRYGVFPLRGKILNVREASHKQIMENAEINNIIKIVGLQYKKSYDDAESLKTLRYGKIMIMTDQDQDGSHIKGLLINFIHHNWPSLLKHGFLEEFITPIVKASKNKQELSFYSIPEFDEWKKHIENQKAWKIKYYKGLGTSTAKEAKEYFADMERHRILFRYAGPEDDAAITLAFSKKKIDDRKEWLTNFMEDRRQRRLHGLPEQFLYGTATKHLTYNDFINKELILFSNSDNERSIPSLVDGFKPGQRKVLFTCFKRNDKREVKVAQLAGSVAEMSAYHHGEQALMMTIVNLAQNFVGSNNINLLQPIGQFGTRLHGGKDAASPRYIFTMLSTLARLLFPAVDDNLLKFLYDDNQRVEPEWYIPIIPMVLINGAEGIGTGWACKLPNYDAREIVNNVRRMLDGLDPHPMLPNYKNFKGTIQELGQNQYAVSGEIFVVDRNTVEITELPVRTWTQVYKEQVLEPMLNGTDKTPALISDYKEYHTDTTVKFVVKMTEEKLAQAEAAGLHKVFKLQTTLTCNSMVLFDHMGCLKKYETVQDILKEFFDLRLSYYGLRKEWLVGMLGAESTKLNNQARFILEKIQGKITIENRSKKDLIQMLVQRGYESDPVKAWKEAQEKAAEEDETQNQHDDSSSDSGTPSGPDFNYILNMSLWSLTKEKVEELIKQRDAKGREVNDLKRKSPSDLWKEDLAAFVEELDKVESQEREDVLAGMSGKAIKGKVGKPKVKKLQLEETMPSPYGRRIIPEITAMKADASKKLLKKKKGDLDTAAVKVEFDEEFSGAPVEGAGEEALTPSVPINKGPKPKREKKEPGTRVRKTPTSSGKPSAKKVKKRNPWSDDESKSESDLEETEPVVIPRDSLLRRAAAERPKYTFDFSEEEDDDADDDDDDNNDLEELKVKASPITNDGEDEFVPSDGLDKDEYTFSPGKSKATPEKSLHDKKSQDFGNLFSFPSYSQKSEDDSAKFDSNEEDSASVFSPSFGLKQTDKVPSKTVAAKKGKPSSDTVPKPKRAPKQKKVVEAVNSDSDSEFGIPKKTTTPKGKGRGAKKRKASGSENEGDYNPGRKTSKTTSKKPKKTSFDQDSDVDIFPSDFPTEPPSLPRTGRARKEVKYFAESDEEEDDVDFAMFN
# UniProt O14773: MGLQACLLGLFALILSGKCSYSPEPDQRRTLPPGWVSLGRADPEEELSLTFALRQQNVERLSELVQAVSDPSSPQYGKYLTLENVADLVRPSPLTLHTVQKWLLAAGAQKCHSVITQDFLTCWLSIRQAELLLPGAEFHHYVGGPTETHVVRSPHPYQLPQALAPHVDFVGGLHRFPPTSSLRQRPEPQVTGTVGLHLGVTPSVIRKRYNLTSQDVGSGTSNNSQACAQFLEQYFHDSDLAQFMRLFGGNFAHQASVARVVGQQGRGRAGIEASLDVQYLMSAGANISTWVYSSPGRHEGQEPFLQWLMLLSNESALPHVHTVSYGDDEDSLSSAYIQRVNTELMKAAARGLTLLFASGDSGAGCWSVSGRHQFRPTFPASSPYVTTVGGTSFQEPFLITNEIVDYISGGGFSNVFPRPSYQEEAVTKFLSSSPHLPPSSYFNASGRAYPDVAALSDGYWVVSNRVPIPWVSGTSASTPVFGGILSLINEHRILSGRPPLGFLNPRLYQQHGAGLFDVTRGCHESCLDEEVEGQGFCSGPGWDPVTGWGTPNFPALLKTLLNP
# UniProt Q9Y4G6: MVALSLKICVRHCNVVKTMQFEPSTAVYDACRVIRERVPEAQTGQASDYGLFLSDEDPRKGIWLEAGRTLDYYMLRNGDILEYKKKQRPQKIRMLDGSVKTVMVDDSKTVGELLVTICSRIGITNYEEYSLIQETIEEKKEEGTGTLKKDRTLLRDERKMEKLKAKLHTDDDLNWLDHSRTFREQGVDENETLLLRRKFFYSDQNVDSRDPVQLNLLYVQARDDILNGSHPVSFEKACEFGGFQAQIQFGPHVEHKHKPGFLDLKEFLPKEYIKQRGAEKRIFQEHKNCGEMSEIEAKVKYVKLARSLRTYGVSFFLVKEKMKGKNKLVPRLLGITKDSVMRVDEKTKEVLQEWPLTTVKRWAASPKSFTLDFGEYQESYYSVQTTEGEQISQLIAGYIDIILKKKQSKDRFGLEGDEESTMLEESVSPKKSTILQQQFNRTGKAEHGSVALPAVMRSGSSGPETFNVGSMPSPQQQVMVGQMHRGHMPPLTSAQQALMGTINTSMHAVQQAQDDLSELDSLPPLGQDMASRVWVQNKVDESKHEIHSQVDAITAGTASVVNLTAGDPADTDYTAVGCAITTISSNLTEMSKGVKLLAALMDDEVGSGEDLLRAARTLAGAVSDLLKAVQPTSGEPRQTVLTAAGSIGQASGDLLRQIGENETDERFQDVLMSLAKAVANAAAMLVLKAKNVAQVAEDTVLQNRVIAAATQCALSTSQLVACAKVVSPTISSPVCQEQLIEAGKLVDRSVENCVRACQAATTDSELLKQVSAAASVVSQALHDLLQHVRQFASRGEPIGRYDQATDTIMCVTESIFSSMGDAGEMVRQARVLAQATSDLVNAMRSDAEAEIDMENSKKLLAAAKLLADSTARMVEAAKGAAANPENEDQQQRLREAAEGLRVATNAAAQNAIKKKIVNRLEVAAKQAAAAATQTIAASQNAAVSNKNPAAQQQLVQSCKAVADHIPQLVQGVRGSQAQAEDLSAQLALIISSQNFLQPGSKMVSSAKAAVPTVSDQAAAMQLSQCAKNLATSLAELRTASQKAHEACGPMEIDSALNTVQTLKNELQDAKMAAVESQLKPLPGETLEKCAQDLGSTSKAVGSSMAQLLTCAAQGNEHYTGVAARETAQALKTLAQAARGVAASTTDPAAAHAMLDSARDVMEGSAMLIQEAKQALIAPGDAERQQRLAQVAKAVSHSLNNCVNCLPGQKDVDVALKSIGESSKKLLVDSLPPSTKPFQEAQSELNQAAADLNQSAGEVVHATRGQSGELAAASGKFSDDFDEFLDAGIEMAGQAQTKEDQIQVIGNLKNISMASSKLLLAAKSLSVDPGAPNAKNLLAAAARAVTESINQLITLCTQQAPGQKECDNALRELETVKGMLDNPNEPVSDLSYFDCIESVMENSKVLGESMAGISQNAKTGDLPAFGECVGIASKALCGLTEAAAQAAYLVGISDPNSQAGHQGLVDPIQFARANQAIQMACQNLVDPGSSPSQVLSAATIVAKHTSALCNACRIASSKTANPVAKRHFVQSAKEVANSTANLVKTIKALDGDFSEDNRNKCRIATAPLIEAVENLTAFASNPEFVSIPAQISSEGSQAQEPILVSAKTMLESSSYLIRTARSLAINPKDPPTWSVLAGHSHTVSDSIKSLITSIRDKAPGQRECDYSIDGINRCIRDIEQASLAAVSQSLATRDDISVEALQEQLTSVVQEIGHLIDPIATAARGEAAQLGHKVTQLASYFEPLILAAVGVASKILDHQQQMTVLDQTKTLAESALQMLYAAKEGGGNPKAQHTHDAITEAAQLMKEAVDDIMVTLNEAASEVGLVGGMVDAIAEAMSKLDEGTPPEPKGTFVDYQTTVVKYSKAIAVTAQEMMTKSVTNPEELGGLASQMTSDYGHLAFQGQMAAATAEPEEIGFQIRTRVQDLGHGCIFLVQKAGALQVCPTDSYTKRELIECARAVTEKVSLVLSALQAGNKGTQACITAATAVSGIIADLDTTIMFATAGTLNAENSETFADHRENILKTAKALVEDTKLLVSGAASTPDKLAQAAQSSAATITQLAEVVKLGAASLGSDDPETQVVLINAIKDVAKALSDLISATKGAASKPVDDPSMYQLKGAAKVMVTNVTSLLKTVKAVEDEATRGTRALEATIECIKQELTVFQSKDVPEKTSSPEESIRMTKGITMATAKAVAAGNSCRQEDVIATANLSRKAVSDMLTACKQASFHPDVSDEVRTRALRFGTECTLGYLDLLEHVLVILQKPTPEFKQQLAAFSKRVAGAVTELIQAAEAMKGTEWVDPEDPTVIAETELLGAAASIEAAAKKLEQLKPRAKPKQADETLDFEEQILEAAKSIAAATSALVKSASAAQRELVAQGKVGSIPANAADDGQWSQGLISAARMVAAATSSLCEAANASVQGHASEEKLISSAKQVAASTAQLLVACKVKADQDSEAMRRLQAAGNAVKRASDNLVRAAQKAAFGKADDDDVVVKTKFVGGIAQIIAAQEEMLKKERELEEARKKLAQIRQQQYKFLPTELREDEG
# UniProt Q96SK2: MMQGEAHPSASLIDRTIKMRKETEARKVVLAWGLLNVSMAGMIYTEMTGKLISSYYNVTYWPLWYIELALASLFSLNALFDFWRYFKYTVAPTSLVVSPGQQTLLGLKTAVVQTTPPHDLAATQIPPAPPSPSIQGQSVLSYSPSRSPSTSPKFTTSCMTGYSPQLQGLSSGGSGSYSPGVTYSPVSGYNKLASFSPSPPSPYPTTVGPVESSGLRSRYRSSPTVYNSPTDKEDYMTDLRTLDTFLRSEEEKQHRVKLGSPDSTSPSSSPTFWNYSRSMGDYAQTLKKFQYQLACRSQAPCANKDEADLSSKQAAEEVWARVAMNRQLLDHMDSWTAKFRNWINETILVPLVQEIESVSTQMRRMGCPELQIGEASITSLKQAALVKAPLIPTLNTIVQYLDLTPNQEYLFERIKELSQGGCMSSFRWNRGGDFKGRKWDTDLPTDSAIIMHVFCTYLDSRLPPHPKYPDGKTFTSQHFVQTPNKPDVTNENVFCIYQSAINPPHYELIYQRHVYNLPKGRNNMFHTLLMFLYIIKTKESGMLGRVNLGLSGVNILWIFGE
# UniProt Q9NQ34: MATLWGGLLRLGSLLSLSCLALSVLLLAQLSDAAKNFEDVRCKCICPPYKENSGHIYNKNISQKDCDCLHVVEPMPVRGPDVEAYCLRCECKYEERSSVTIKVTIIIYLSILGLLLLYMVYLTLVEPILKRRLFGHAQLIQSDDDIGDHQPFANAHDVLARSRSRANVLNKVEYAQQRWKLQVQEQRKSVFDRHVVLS
# UniProt Q15785: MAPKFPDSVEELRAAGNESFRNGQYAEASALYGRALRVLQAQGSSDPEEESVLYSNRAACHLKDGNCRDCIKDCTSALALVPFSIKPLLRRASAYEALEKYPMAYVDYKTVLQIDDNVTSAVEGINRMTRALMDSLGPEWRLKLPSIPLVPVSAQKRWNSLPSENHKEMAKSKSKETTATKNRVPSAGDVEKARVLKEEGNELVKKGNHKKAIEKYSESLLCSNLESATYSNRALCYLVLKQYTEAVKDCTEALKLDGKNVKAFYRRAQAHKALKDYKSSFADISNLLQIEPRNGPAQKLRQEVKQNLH
# Some of the results follow.
# Compound: Cc1cc(ccc1-c1ccccc1)C(=O)N1CCCN(CC1)C(=O)CCl [compound 10]
# Experiment: probe-labelled cysteine peptide fold change vs DMSO (competition) (log2 fold change); higher = less target engagement (more negative = stronger competition)
# Settings: THP-1, incubation time: 4 h
# 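Note: competitive profiling in live THP-1 cells: cysteine peptides tagged with an iodoacetamide desthiobiotin (IA-DTB) probe, intensity after compound treatment relative to DMSO-treated cells.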
Target,probe-labelled cysteine peptide fold change (10 µM),probe-labelled cysteine peptide fold change (50 µM)
TOP1_P11387_504+505_EEGETADTVGCCSLR (UniProt P11387),-0.0145,-0.39
TOP1_P11387_504_EEGETADTVGCCSLR (UniProt P11387),0.0427,0.192
TOE1_Q96GM8_371_KQVCGDSIKPEETEQEVAADETR (UniProt Q96GM8),-0.0655,-0.661
TP53BP1_Q12888_1926_DIALGVFDVVVTDPSCPASVLK (UniProt Q12888),0.0589,-0.0545
TMEM30A_Q9NV96_157_ECEPYRR (UniProt Q9NV96),-0.408,-0.195
TNPO3_Q9Y5L0_303_IFTELCETFLEK (UniProt Q9Y5L0),0.35,0.295
TOP2B_Q02880-2_7_SGGCGAGAGVGGGNGALTWVNNAAK (UniProt Q02880),-0.14,-0.316
TMEM120A_Q9BXJ8_47_LQNNCTSSITR (UniProt Q9BXJ8),-0.176,-0.0504
TNKS1BP1_Q9C0C2_1296_NMAPGAVCSPGESK (UniProt Q9C0C2),-0.618,-0.58
TLN1_Q9Y490_732_VVAPTISSPVCQEQLVEAGR (UniProt Q9Y490),0.0719,0.17
TP53BP1_Q12888_101_VADPVDSSNLDTCGSISQVIEQLPQPNR (UniProt Q12888),0.0981,-0.16
TOP1_P11387_386_RIMPEDIIINCSK (UniProt P11387),-0.0755,-0.0685
TNRC18_O15417_2921_CLVVGLEQYEQMLK (UniProt O15417),-0.133,0.197
TONSL_Q96HA7_561_DYCGWTPLHEACNYGHLEIVR (UniProt Q96HA7),0.227,-0.365
TMF1_P82094_518_VQLACK (UniProt P82094),-0.035,0.0261
TMEM94_Q12767_984_GIHQVRPHLQNIDNVPLLVPLFTDCTPETMCEMIK (UniProt Q12767),0.0807,-0.422
TMEM259_Q4ZIN3_246_LSIPVMVVTLDPTRDQCFGDR (UniProt Q4ZIN3),-0.372,0.0738
TNPO1_Q92973_142+153_LCSLLDSEDYNTCEGAFGALQK (UniProt Q92973),-0.344,-0.0836
TNKS1BP1_Q9C0C2_136_CAAPGGVR (UniProt Q9C0C2),-0.165,-0.275
TOP2B_Q02880_387_NHIWVFINCLIENPTFDSQTK (UniProt Q02880),0.0327,0.24
TOP2A_P11388_1145_EKKDELCR (UniProt P11388),-0.169,-0.516

Target,probe-labelled cysteine peptide fold change (10 µM),probe-labelled cysteine peptide fold change (50 µM)
TPP1_O14773_111_CHSVITQDFLTCWLSIR (UniProt O14773),-0.23,0.167
TMEM131L_A2VDJ0_352_IASFTCK (UniProt A2VDJ0),-0.15,0.0594
TLN1_Q9Y490_29_TMQFEPSTMVYDACR (UniProt Q9Y490),0.0337,-0.0224
TP53BP1_Q12888_712_ECSEAMEVETSVISIDSPQK (UniProt Q12888),-0.03,0.193
TLN2_Q9Y4G6_1047_AHEACGPMEIDSALNTVQTLK (UniProt Q9Y4G6),0.0762,0.000317
TPI1_P60174_164_VAHALAEGLGVIACIGEKLDER (UniProt P60174),-0.381,-0.632
TOPBP1_Q92547_430_WLLECFSK (UniProt Q92547),0.281,0.168
TPD52L2_O43399_74_HCGELK (UniProt O43399),-0.0703,-0.203
TOMM70_O94826_317_IISECSK (UniProt O94826),0.0724,0.114
TOP2B_Q02880_1018_LQTTLTCNSMVLFDHMGCLK (UniProt Q02880),-0.0106,0.0237
TOP1_P11387_630_AVAILCNHQR (UniProt P11387),0.0652,0.0505
TOPBP1_Q92547_60_SLYICDPFSGVVFDHLKK (UniProt Q92547),0.122,-0.237
TLN2_Q9Y4G6_1110_AVGSSMAQLLTCAAQGNEHYTGVAAR (UniProt Q9Y4G6),-0.0473,0.0206
TLN1_Q9Y490_750_AVEGCVSASQAATEDGQLLR (UniProt Q9Y490),0.31,0.325
TMF1_P82094_301_SSLHLMQTSFQLLSASACPEYNR (UniProt P82094),-0.211,-0.691
TOP2B_Q02880_271_AYDLAGSCR (UniProt Q02880),0.106,0.268
TMEM30A_Q9NV96_157_ECEPYR (UniProt Q9NV96),0.0986,0.428
TMEM30A_Q9NV96_17_AMNYNAKDEVDGGPPCAPGGTAK (UniProt Q9NV96),-0.185,-0.815
TM7SF3_Q9NS93_180_GVDPPPCDAGTDQDSR (UniProt Q9NS93),-0.0994,0.0178
TPM3_P06753-2_154_CREMDEQIR (UniProt P06753),0.328,0.029
TOP2A_P11388_300_WEVCLTMSEK (UniProt P11388),0.203,0.261

Target,probe-labelled cysteine peptide fold change (10 µM),probe-labelled cysteine peptide fold change (50 µM)
TMEM106B_Q9NUM4_61+64_DSVTCPTCQGTGR (UniProt Q9NUM4),-0.0829,-0.647
TONSL_Q96HA7_1345_RLCAEDRDALR (UniProt Q96HA7),-0.259,-0.544
TLN1_Q9Y490_2408_MVAAATNNLCEAANAAVQGHASQEK (UniProt Q9Y490),0.227,0.0436
TOR3A_Q9H497_385_EEQLFSSQGCK (UniProt Q9H497),-0.000787,-0.00453
TPP1_O14773_111+122_CHSVITQDFLTCWLSIR (UniProt O14773),-0.17,0.398
TOR4A_Q9NXH8_62_LLQPGGGPDVGTGAPRPGCSPR (UniProt Q9NXH8),-0.0668,0.07
TM9SF3_Q9HD45_108_DDVMPATYCEIDLDK (UniProt Q9HD45),0.424,0.752
TNS3_Q68CZ2_107_AQESWLNSNLQHVVVIHCR (UniProt Q68CZ2),0.137,0.262
TMEM192_Q8IY95_266_LLALTSSDLGCQPSRT (UniProt Q8IY95),-0.151,-0.414
TMEM209_Q96SK2_295_KFQYQLACR (UniProt Q96SK2),-0.269,-0.587
TMEM9B_Q9NQ34_66+68_DCDCLHVVEPMPVR (UniProt Q9NQ34),-0.0137,-0.0293
TOMM34_Q15785_74_DCTSALALVPFSIKPLLR (UniProt Q15785),0.0905,-0.93
TNPO2_O14787_805_LGYVCPQEVAPMLQQFIRPWCTSLR (UniProt O14787),0.0391,0.394
TMED4_Q7Z7H5_41_CFIEEIPDETMVIGNYR (UniProt Q7Z7H5),-0.11,0.496
TMPO_P42166_330_DIVENICGR (UniProt P42166),-0.136,-0.0688
TONSL_Q96HA7_972_YYQTCGLLPR (UniProt Q96HA7),0.0896,0.0343
TMEM209_Q96SK2_455_KWDTDLPTDSAIIMHVFCTYLDSR (UniProt Q96SK2),0.384,0.256
TMEM120B_A0PK00_43_QKLEELAALQTLCSSSISK (UniProt A0PK00),0.0405,-0.0551
TLN1_Q9Y490_956_ASAGPQPLLVQSCK (UniProt Q9Y490),-0.0509,0.0552
TNFAIP8L3_Q5GJ75_272_INHVFNHFADVEFLSTLYSLDGDCRPNLK (UniProt Q5GJ75),0.0517,0.151
TMEM173_Q86WV6_148_GLAPAEISAVCEK (UniProt Q86WV6),-0.241,0.0295

Target,probe-labelled cysteine peptide fold change (10 µM),probe-labelled cysteine peptide fold change (50 µM)
TLR2_O60603_564_VLIDWPANYLCDSPSHVR (UniProt O60603),0.0776,0.0301
TMEM9B_Q9NQ34_66_DCDCLHVVEPMPVRGPDVEAYCLR (UniProt Q9NQ34),-0.117,0.21
TOP1_P11387_505_EEGETADTVGCCSLR (UniProt P11387),-0.238,-0.0887
TONSL_Q96HA7_66_ERADDPLGCAVAHR (UniProt Q96HA7),0.224,-0.301
TOP3B_O95985_118_GCDYIVLWLDCDK (UniProt O95985),0.285,0.246
TOMM70_O94826_588_SEMEMAHLYSLCDAAHAQTEVAK (UniProt O94826),-0.0399,0.122
TMEM87B_Q96K49_139_NENLDCNSDSQVFPSLNNK (UniProt Q96K49),-0.128,0.162
TONSL_Q96HA7_537_ACIEGQLR (UniProt Q96HA7),0.00849,-0.719
TOPBP1_Q92547_1485_TEYIADYLMQESPPHVENYCLPEAISFIQNNK (UniProt Q92547),0.0478,0.309
TOP2A_P11388_170_LCNIFSTK (UniProt P11388),-0.173,-0.0147
TOR1AIP2_Q8NFQ8_310_CLSHHVADAYTSSQK (UniProt Q8NFQ8),0.118,0.159
TNRC18_O15417_475_ELLKPEADPRPCER (UniProt O15417),-0.0425,-0.0152
TOR2A_Q5JU69_35+43_CTLGAFCECDFRPDLPGLECDLAQHLAGQHLAK (UniProt Q5JU69),-0.21,0.239
TOMM34_Q15785_250_DCTEALK (UniProt Q15785),0.155,-0.128
TM9SF4_Q92544_100+104_KCEVLCSQSNKPVTLTVEQSR (UniProt Q92544),-0.17,-0.553
TMEM33_P57088_224_IVVEHIIMKPACPLFVR (UniProt P57088),-0.228,-0.262
TOPBP1_Q92547_60_SLYICDPFSGVVFDHLK (UniProt Q92547),0.344,0.398
TNS3_Q68CZ2_88_MCTICK (UniProt Q68CZ2),-0.357,-0.873
